Data from the supplement of paper PMC6411743.
± gives the standard deviation of the averaged measurements. Only a part is listed here, and it is no random draw.

Columns and labels:
Assay in all cases: NP40-soluble protein abundance relative to vehicle (solubility fold change) (ratio); higher = more soluble protein in presence of AMP-PNP
PGLS = molecular target: T1, PGLS (UniProt O95336)
T1 sequence (whole entry): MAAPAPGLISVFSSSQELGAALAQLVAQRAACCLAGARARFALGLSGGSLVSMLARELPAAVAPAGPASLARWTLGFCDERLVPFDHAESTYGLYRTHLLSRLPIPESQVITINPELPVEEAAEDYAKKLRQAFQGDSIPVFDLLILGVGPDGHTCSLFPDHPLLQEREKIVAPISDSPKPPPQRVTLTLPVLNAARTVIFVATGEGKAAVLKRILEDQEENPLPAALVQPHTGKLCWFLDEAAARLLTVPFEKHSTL
How it was run: (§1)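 Jurkat crude lysate prepared with a Dounce homogeniser was treated at eight concentrations spanning 0.1 to 10 mM, 10 min at room temperature then 3 min at 37 °C. Solubilisation with 0.8% NP40 and benzonase and ultracentrifugation preceded TMT labelling of the supernatant for LC-MS/MS. Fold change against the detergent-processed vehicle was determined per replicate from vsn-normalised intensities, across three independent experiments.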

SEC24A = molecular target: T2, SEC24A (UniProt O95486)
T2 sequence (whole entry): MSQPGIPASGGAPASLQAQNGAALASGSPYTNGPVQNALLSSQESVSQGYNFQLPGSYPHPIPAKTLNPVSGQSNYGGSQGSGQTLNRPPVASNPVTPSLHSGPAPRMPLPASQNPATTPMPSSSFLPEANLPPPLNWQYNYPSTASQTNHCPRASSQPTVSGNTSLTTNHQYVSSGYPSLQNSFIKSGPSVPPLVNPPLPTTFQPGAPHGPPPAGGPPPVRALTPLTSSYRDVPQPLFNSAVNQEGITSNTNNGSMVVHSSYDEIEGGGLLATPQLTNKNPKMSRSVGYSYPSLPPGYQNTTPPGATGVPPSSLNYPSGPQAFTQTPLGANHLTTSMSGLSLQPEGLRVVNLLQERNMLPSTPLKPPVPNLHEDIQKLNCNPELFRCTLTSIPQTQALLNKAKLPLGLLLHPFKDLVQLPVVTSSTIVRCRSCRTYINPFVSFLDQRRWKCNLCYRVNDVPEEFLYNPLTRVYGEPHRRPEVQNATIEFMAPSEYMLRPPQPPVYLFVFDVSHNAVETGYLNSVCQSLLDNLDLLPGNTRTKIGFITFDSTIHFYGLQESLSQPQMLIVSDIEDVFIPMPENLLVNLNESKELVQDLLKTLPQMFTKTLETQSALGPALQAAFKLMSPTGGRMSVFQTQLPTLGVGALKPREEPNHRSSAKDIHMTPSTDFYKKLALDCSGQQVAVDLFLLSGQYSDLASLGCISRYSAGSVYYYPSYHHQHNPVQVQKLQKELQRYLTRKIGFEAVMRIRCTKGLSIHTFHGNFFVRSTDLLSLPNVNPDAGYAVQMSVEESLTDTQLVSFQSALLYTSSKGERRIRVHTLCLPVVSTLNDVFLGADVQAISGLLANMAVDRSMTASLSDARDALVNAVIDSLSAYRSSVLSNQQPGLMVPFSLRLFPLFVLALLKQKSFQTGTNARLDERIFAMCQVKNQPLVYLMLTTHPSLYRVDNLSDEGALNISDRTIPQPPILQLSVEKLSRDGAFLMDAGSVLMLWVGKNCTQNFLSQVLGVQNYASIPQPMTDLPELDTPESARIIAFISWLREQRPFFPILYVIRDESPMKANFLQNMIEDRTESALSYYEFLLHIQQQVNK
How it was run: as §1

SPAG7 = molecular target: T3, SPAG7 (UniProt O75391)
T3 sequence (whole entry): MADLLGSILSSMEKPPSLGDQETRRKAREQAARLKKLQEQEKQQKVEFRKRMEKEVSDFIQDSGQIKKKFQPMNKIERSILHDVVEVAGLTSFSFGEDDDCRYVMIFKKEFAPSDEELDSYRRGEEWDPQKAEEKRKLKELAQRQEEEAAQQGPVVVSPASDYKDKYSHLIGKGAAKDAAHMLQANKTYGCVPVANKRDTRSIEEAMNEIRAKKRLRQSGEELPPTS
How it was run: as §1

USP1 = molecular target: T4, USP1 (UniProt O94782)
T4 sequence (whole entry): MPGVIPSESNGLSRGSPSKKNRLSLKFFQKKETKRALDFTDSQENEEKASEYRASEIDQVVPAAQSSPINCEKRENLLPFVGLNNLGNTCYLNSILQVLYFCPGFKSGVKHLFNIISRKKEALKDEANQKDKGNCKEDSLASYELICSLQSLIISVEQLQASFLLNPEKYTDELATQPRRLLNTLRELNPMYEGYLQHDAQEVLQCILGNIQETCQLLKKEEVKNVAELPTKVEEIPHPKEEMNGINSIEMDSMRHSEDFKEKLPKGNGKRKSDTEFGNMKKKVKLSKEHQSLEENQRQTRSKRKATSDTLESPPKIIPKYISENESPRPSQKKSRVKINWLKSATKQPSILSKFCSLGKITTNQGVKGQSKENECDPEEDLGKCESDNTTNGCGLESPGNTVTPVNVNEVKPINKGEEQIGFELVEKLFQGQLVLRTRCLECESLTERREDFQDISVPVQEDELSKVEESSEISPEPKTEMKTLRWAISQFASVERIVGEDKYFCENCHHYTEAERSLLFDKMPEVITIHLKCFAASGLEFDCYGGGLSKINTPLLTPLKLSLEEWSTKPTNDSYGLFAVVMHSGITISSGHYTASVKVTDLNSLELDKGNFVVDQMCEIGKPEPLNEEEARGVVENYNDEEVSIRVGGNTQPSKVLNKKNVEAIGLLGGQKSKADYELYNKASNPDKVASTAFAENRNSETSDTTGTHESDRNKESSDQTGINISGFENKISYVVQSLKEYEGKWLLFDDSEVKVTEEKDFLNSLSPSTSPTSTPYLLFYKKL
How it was run: as §1

[1] = molecular target: T5, UniProt O60671 and related entries
T5 sequence (whole entry): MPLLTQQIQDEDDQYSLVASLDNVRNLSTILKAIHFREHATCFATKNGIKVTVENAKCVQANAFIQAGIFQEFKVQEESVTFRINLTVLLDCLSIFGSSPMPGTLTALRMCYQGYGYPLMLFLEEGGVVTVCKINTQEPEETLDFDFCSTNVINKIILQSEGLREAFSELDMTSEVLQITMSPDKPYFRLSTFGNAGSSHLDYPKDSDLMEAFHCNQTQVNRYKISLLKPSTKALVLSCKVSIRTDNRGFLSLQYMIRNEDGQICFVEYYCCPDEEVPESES
How it was run: as §1

## Nc1ncnc2c1ncn2[C@@H]1O[C@H](COP(=O)(O)OP(=O)(O)NP(=O)(O)O)[C@@H](O)[C@H]1O [adenylyl imidodiphosphate]
PGLS; concentration: 6mM
  NP40-soluble protein abundance: 1 ± 0.11
PGLS; concentration: 8mM
  NP40-soluble protein abundance: 1.03 ± 0.06
PGLS; concentration: 10mM
  NP40-soluble protein abundance: 0.967 ± 0.1
SEC24A; concentration: 1mM
  NP40-soluble protein abundance: 0.974 ± 0.019
SEC24A; concentration: 2mM
  NP40-soluble protein abundance: 0.933 ± 0.06
SEC24A; concentration: 4mM
  NP40-soluble protein abundance: 0.9772 ± 0.008
SEC24A; concentration: 6mM
  NP40-soluble protein abundance: 0.9544 ± 0.0079
SEC24A; concentration: 8mM
  NP40-soluble protein abundance: 0.956 ± 0.024
SEC24A; concentration: 10mM
  NP40-soluble protein abundance: 0.9188 ± 0.0071
SPAG7; concentration: 1mM
  NP40-soluble protein abundance: 0.9725 ± 0.0086
SPAG7; concentration: 2mM
  NP40-soluble protein abundance: 1.03 ± 0.058
SPAG7; concentration: 4mM
  NP40-soluble protein abundance: 0.966 ± 0.031
SPAG7; concentration: 6mM
  NP40-soluble protein abundance: 0.952 ± 0.016
SPAG7; concentration: 8mM
  NP40-soluble protein abundance: 0.9328 ± 0.0069
SPAG7; concentration: 10mM
  NP40-soluble protein abundance: 0.91 ± 0.061
USP1; concentration: 1mM
  NP40-soluble protein abundance: 0.999 ± 0.059
USP1; concentration: 2mM
  NP40-soluble protein abundance: 1.01 ± 0.056
USP1; concentration: 4mM
  NP40-soluble protein abundance: 0.999 ± 0.065
USP1; concentration: 6mM
  NP40-soluble protein abundance: 0.978 ± 0.033
USP1; concentration: 8mM
  NP40-soluble protein abundance: 0.967 ± 0.017
USP1; concentration: 10mM
  NP40-soluble protein abundance: 0.973 ± 0.042
[1]; concentration: 1mM
  NP40-soluble protein abundance: 0.97 ± 0.048
[1]; concentration: 2mM
  NP40-soluble protein abundance: 0.949 ± 0.024
[1]; concentration: 4mM
  NP40-soluble protein abundance: 0.987 ± 0.061
[1]; concentration: 6mM
  NP40-soluble protein abundance: 1.03 ± 0.052
[1]; concentration: 8mM
  NP40-soluble protein abundance: 1.02 ± 0.036
[1]; concentration: 10mM
  NP40-soluble protein abundance: 0.98 ± 0.037
